# In all, about 33,000 sequences were measured (“E-score (-0.5 to 0.5)”: median about -0.0059, highest 2% from about 0.26 on). Some of the results follow.
# Target: T1, Cin5 (UniProt P40917)
# T1 sequence: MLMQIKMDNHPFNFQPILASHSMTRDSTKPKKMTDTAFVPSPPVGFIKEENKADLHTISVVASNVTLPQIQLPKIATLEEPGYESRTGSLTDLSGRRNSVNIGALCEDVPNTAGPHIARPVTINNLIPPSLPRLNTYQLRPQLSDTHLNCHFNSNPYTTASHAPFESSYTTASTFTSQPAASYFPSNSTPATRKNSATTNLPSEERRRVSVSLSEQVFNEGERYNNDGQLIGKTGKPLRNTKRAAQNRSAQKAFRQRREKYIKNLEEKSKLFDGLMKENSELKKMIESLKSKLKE
# Experiment: PBM E-score (8-mer binding enrichment) (E-score (-0.5 to 0.5)); higher = stronger / more preferred TF binding
# Details: protein concentration: 100 nM; construct: GST-full length
# How it was run: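 Universal all-10-mer Agilent arrays, fresh or stripped once, were converted to double-stranded form by primer extension. GST-tagged yeast transcription factors from PURExpress in vitro transcription/translation, full-length or DNA-binding domain only, were applied at about 100-200 nM and detected with fluorescent anti-GST. After masliner normalisation, the Universal PBM Analysis Suite scored each ungapped eight-base word together with its reverse complement by E-score.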
row,Sequence,PBM E-score
1,ATTGTAGA,0.173
2,TAGTAGAA,0.0578
3,GGGCTTAA,-0.0528
4,CCTCCACC,-0.237
5,CAACTGGC,-0.0517
6,GAGATCGA,0.0654
7,GCTGACCC,-0.143
8,ACGATCAA,0.112
9,ACGGAGCA,0.0794
10,ACTTTACT,0.184
11,AAATCGCG,0.106
12,GGTAGAGA,0.0876
13,CAATACCA,0.0989
14,TCTACTAA,0.171
15,TGCGCGAA,0.137
16,TCCATCGA,0.071
17,ATGGGGTA,0.142
18,TCGGAAGA,-0.182
19,ATGGATCC,0.0853
20,GATTCGAC,-0.0383
21,GGGTTGTA,-0.0393
22,GTACCAAA,0.139
23,CGAGGACG,-0.118
24,AACCTCAA,0.0121
25,CATATGCG,0.0727

row,Sequence,PBM E-score
1,GGCTCTTA,-0.148
2,CGTATTTC,0.0605
3,ATTTACCG,0.174
4,GTCCGGTA,-0.0658
5,ACAATTAA,0.221
6,CACCAACC,0.0602
7,ACAGTCAG,-0.0425
8,CACACTGG,-0.0632
9,CAATCAGA,0.0452
10,AGAAGCGA,0.0278
11,CGTGTCGC,-0.13
12,AAACCATA,0.0572
13,GAGCCATA,-0.0932
14,CCACGCGA,0.0385
15,AAGAGCAC,-0.0573
16,AAGATGAG,-0.15
17,GAGCTAGC,0.0195
18,CTCGCTAC,-0.0551
19,GATAGTGA,0.176
20,CCAAGGGG,-0.145
21,CGTTAACA,0.0465
22,CGGGAGTC,-0.154
23,ATAACAGG,-0.0304
24,AATAACGT,0.0882
25,AACACTTA,0.154

# 5 entries picked at random from the list so far, as already listed:
row,Sequence,PBM E-score
10,ACTTTACT,0.184
18,CTCGCTAC,-0.0551
25,CATATGCG,0.0727
2,CGTATTTC,0.0605
23,CGAGGACG,-0.118

# Further records follow:

row,Sequence,PBM E-score
1,CATGGATA,0.0561
2,GCGAAAAC,-0.161
3,ATCGCGAA,0.184
4,AAGGCGAT,-0.0973
5,CTGGGCGA,-0.23
6,ATCGACCG,-0.0503
7,CGAGTTGC,0.161
8,GCCTCACA,0.0319
9,CGAAATCA,0.231
10,CGAGAAGA,0.135
11,AAGTAACT,0.186
12,ACTGTTAT,0.215
13,ATCTGCAT,0.123
14,CCAGCCGG,-0.172
15,TCAGTGGA,-0.093
16,ACAAACGA,0.186
17,TGCACGAA,0.104
18,AGTGATAG,0.0167
19,TCAAAAAA,0.156
20,ATGAGTGA,0.168
21,TCAACCCA,0.088
22,AGGTAAGC,0.321
23,CTCGGCTC,-0.113
24,CAGAAGTA,0.16
25,CATGGGGC,-0.0962

row,Sequence,PBM E-score
1,GCAGCCAA,0.034
2,CACTGAGG,-0.0826
3,GCTCTAAC,-0.0778
4,CCAGAATC,-0.0294
5,ATTCTGAC,-0.0416
6,ATGTGAAG,0.142
7,CATCATTC,0.184
8,TGTAGTAA,0.238
9,AATTGAAA,0.244
10,GATAATCA,0.159
11,ACACGTCA,0.0157
12,ATTCCTCA,-0.0129
13,CCGAAACA,-0.00673
14,AGCTGGAA,-0.0454
15,CTTGACTA,0.0185
16,AGTCTTTA,-0.197
17,AGTATCAT,0.161
18,CCAAGACA,0.0311
19,CTCGCGAC,0.107
20,TACGGGCA,-0.157
21,ATAGATAG,0.0352
22,ACGCACAT,0.0755
23,CTCATGAC,0.0295
24,AGACGGCG,0.085
25,CCAAGCAG,-0.103

row,Sequence,PBM E-score
1,AACCAGTC,-0.165
2,AGGCGTGG,-0.2
3,AATCTGTG,0.122
4,AACTAGCG,0.102
5,ATTACGTG,0.423
6,CGCTTACG,0.379
7,GGATCTAA,-0.0599
8,ACACTCCA,0.0651
9,CTAACCCC,-0.197
10,GAGGGATA,-0.313
11,GGATCGTA,-0.0235
12,GTCGGCTA,-0.0338
13,CTATCAGC,0.121
14,CCATTGAA,0.135
15,AATAGTAG,0.144
16,GTCATACA,0.162
17,AAAGTACG,0.12
18,CGCAATTA,0.0824
19,GTTTGATA,0.19
20,ACAAAGCT,0.0727
21,GCCTTCAA,-0.118
22,ATATCGCC,0.0352
23,AGTGCATG,-0.0115
24,AACACACT,0.22
25,CCTAGCGC,-0.0991

row,Sequence,PBM E-score
1,CAACCGTC,-0.179
2,ACTTTCAC,0.0418
3,ATTATACC,0.187
4,TGACCCAA,0.0896
5,CTCTAGTC,-0.222
6,TAGCCAAA,0.0484
7,ATATTGCA,0.167
8,AAACTGGC,0.0555
9,ATCAGAAC,0.0397
10,CCTTGCGA,0.0783
11,AGGGGGTA,-0.489
12,AGCTGGCA,0.0328
13,GGCACGTA,-0.112
14,AGTCGGAG,-0.214
15,ATACGGGG,-0.0881
16,CTTTCGAC,-0.0607
17,GCAACGGC,-0.0325
18,GCCACTAC,-0.0516
19,GGCCCTCA,-0.342
20,AGCCCTGG,-0.305
21,ACGCATAA,0.0967
22,ACACATTA,0.133
23,CTTAGGCA,-0.266
24,ACCGTCAC,-0.307
25,AAGAGGTA,0.0509

row,Sequence,PBM E-score
1,GACATCTC,-0.0668
2,AACGCTTA,0.125
3,CGTTGTAG,0.105
4,TATGCGAA,0.131
5,AGGTATCG,0.0479
6,CGCTATTA,0.0337
7,CTGGGGTC,0.1
8,CAAAGGAA,0.148
9,AAGTCTAT,-0.028
10,CATTTGGG,0.0397
11,CGCACGTC,-0.0886
12,GCAATTCA,0.056
13,GAGCCGTA,0.0973
14,CACCAATA,0.0315
15,AGACTAAT,-0.149
16,ACCAGATA,0.157
17,AGCTGGCG,-0.178
18,CCCCACTC,-0.0562
19,ACCTGCTC,-0.0402
20,CATGTAAC,0.0447
21,TAGAGTGA,-0.134
22,ACGTTCCA,0.0533
23,ACGCAATC,0.0758
24,CCTGGACG,-0.179
25,AACTAGGT,0.118

# Exported as tab-separated lines: entries from further up
row	Sequence	PBM E-score
1	GACATCTC	-0.0668
13	GAGCCGTA	0.0973
14	CACCAATA	0.0315
16	ACCAGATA	0.157
18	CCCCACTC	-0.0562
19	ACCTGCTC	-0.0402

# (cont.)

row,Sequence,PBM E-score
1,AGCAATTA,0.213
2,GGTGAACA,-0.203
3,AACTGAGG,-0.0198
4,AATGACTG,0.0689
5,ATTCCGAC,0.0717
6,CGAAGCCA,-0.0869
7,AGGTACAA,-0.0713
8,AACCACAA,0.163
9,GCGCCTTA,0.109
10,GTAACTAC,0.189
11,AAATCTCT,0.0834
12,CGGAGGCA,-0.0866
13,CGACAGAC,-0.0325
14,AACCTGTA,0.0236
15,GACCCCGC,0.0921
16,ACTATTTG,0.2
17,AGTGGACG,0.121
18,CCCAGGAA,-0.103
19,CCACCCTC,0.153
20,ATGCCGAA,0.041
21,ATTCGAAT,-0.0194
22,GAAGACGA,0.16
23,ACGTTGCA,-0.0503
24,CTTGGCTA,0.113
25,CGAAGTCC,-0.134

row,Sequence,PBM E-score
1,ATATACGC,0.0713
2,TGCCCGCA,0.0753
3,GCCGCTGA,0.0604
4,AATGCTGA,0.118
5,GACCCTCA,-0.275
6,GTATAAGA,0.0464
7,CCCACCTC,-0.169
8,GAGACAGC,-0.00537
9,AGCTTACG,0.337
10,GCAGATAA,0.0212
11,AATTATGA,0.257
12,CCAAGTCG,-0.0522
13,CGCCTAAG,-0.254
14,ATCGTGCG,0.213
15,CGAACTGA,-0.0752
16,CGGAGACG,-0.0111
17,CGCCACTA,-0.0464
18,TCCACAGA,0.177
19,GAACTCCA,0.0209
